Test results: paper PMC11445230
Results are given in words; binding and its absence hold for the method and conditions named. Binding seen in cells or lysates may run through a third protein. Some results given as binding are weak or reduced against the parent protein; the word gives no strength.

Chains of the proteins cited; added tags and fusions are not shown. Residues count along the entry.
UniProt Q9Y653, residues 26-693: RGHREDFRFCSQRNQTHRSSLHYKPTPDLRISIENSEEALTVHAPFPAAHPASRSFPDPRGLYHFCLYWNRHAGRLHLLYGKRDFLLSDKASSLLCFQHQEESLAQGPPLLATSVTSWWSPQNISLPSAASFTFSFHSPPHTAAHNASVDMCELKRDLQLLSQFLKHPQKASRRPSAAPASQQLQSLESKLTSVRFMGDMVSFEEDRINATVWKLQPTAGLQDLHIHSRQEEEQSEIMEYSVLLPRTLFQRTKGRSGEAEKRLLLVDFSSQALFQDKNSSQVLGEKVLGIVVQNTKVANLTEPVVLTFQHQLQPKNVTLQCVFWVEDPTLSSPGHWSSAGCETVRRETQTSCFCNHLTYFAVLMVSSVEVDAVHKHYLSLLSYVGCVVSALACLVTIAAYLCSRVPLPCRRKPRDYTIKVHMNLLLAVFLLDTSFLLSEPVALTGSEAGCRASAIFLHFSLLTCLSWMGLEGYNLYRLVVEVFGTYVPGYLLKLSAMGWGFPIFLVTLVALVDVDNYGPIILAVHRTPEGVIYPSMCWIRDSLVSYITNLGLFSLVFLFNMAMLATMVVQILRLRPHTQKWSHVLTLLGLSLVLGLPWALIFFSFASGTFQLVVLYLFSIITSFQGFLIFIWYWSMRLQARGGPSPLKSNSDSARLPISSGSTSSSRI

What was measured:
[1] = target: GPR56, exogenous, in 293T cells (UniProt Q9Y653); assay: co-IP; exogenous GPR56 and TGFBR1 in 293T cells; IP-lysis buffer, antibody at 4 °C, Magnetic Agarose Beads, Western blot
[2] = target: GPR56, endogenous in MHCC97H cells (human (endogenous in MHCC97H)) (UniProt Q9Y653); assay: co-IP; endogenous GPR56 and TGFBR1 in MHCC97H cells, with or without TGF-β1 treatment for 1 h (TGF-β1 augmented the interaction); IP-lysis buffer, antibody at 4 °C, Magnetic Agarose Beads, Western blot

binding [1] | binding [2] | Binder
binds | – | TGFBR1, exogenous, in 293T cells (receptor, UniProt P36897 34-503) LQCFCHLCTKDNFTCVTDGLCFVSVTETTDKVIHNSMCIAEIDLIPRDRPFVCAPSSKTGSVTTTYCCNQDHCNKIELPTTVKSSPGLGPVELAAVIAGPVCFVCISLMLMVYICHNRTVIHHRVPNEEDPSLDRPFISEGTTLKDLIYDMTTSGSGSGLPLLVQRTIARTIVLQESIGKGRFGEVWRGKWRGEEVAVKIFSSREERSWFREAEIYQTVMLRHENILGFIAADNKDNGTWTQLWLVSDYHEHGSLFDYLNRYTVTVEGMIKLALSTASGLAHLHMEIVGTQGKPAIAHRDLKSKNILVKKNGTCCIADLGLAVRHDSATDTIDIAPNHRVGTKRYMAPEVLDDSINMKHFESFKRADIYAMGLVFWEIARRCSIGGIHEDYQLPYYDLVPSDPSVEEMRKVVCEQKLRPNIPNRWQSCEALRVMAKIMRECWYANGAARLTALRIKKTLSQLSQQEGIKM
– | binds | TGFBR1, endogenous in MHCC97H cells (receptor, UniProt P36897 34-503) LQCFCHLCTKDNFTCVTDGLCFVSVTETTDKVIHNSMCIAEIDLIPRDRPFVCAPSSKTGSVTTTYCCNQDHCNKIELPTTVKSSPGLGPVELAAVIAGPVCFVCISLMLMVYICHNRTVIHHRVPNEEDPSLDRPFISEGTTLKDLIYDMTTSGSGSGLPLLVQRTIARTIVLQESIGKGRFGEVWRGKWRGEEVAVKIFSSREERSWFREAEIYQTVMLRHENILGFIAADNKDNGTWTQLWLVSDYHEHGSLFDYLNRYTVTVEGMIKLALSTASGLAHLHMEIVGTQGKPAIAHRDLKSKNILVKKNGTCCIADLGLAVRHDSATDTIDIAPNHRVGTKRYMAPEVLDDSINMKHFESFKRADIYAMGLVFWEIARRCSIGGIHEDYQLPYYDLVPSDPSVEEMRKVVCEQKLRPNIPNRWQSCEALRVMAKIMRECWYANGAARLTALRIKKTLSQLSQQEGIKM
